No constants are given. Whether binding was seen depends on the method and setting. Binding seen in cells or lysates may run through a third protein. Here binding means that the protein was enriched with, or labelled near, the bait; the list need not be complete. Where a sequence is shown, tags or fusion partners need not be part of it.
Target: T1, Flag-TRAF3IP3 expressed in A549 cells (human) (UniProt Q9Y228)
T1 sequence: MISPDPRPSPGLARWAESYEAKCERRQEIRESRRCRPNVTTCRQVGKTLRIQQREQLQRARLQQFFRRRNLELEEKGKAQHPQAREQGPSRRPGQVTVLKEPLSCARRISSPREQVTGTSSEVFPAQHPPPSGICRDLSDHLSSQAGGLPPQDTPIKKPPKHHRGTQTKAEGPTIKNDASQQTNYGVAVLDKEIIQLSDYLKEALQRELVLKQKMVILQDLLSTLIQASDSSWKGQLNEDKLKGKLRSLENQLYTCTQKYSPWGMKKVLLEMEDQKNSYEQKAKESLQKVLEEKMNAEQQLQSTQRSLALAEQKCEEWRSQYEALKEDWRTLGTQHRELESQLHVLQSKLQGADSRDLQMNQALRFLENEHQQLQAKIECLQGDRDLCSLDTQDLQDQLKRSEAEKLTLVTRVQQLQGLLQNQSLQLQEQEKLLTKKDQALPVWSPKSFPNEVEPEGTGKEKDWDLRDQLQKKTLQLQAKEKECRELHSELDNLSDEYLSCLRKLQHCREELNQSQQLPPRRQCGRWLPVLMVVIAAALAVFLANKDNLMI
Experiment: affinity purification with mass spectrometry; anti-Flag IP from A549 cells with Flag-TRAF3IP3 or Flag-vector, two repetitions; SDS-PAGE, in-gel digestion, LC-MS/MS

B1: endogenous STRN3 (protein, UniProt Q13033 1-797)
chain: MDELAGGGGGGPGMAAPPRQQQGPGGNLGLSPGGNGAAGGGGPPASEGAGPAAGPELSRPQQYTIPGILHYIQHEWARFEMERAHWEVERAELQARIAFLQGERKGQENLKKDLVRRIKMLEYALKQERAKYHKLKYGTELNQGDLKMPTFESEETKDTEAPTAPQNSQLTWKQGRQLLRQYLQEVGYTDTILDVRSQRVRSLLGLSNSEPNGSVETKNLEQILNGGESPKQKGQEIKRSSGDVLETFNFLENADDSDEDEENDMIEGIPEGKDKHRMNKHKIGNEGLAADLTDDPDTEEALKEFDFLVTAEDGEGAGEARSSGDGTEWDKDDLSPTAEVWDVDQGLISKLKEQYKKERKGKKGVKRANRTKLYDMIADLGDDELPHIPSGIINQSRSASTRMTDHEGARAEEAEPITFPSGGGKSFIMGSDDVLLSVLGLGDLADLTVTNDADYSYDLPANKDAFRKTWNPKYTLRSHFDGVRALAFHPVEPVLVTASEDHTLKLWNLQKTVPAKKSASLDVEPIYTFRAHIGPVLSLAISSNGEQCFSGGIDATIQWWNMPSPSVDPYDTYEPNVLAGTLVGHTDAVWGLAYSGIKNQLLSCSADGTVRLWNPQEKLPCICTYNGDKKHGIPTSVDFIGCDPAHMVTSFNTGSAVIYDLETSQSLVILSSQVDSGLQSNNHINRVVSHPTLPVTITAHEDRHIKFFDNKTGKMIHSMVAHLDAVTSLAVDPNGIYLMSGSHDCSIRLWNLDSKTCVQEITAHRKKLDESIYDVAFHSSKAYIASAGADALAKVFV
binding: binds

— article PMC12061266
